At least one structure is not confirmed: it was looked up by name or label, or the drawing left a doubt.
What was measured:
A172 GBM cells = assay: XTT cell viability assay on A172; assay type: cell-based, Human; conditions: 10 μM, 48 hours
Description: Cell cultures—Human glioblastoma A172 (ATCC®CRL-1620™) was cultured in DMEM (01-055-1A, Biological Industries, Israel) and U87MG (U87; ATCC®HTB-14™) in EMEM (01-058-1A; Biological Industries, Israel). Both media were supplemented with 10% fetal bovine serum (FBS, 04-127-1A, Biological Industries, Israel), 1% Pen-Strep, 1% L-Glutamine and 0.02% plasmocin (i.e., complete medium). Cells were incubated at 37° C. in a humidified atmosphere containing 5% CO2—95% air. Serum free media (SFM) was composed of DMEM/F12 (01-170-1A; Biological Industries, Israel), including all the supplements above except for FBS. Neurosphere media for A172 was composed of SFM with 2% B-27; Neurosphere media for U87 was serum-free EMEM without B27. For Glioblastoma stem cells (GSCs) cultures all human materials were used in accordance with the policies of the Henry Ford Hospital Institutional Review Board. Generation of GSCs from fresh GBM specimens and their characterization have been recently described. […]
(§1) Cell viability assays—Cells were seeded in 96-well plates at density of 2×10^4 per well (100 μL/well) in SFM (for A172) or complete medium (for U87) and were incubated at 37° C. overnight to allow attachment. […] Absorbance was recorded by a Synergy H1 hybrid reader photometer (BioTek) at 490 nm with 650 nm of reference wavelength. […]

[1] = tested on: ovarian cancer cell line HTB75; assay: XTT cell viability assay on HTB75; assay type: cell-based; conditions: 10 μM, 48 h
Description: FIGS. 17A-B show cell viability of HTB75 cells (FIG. 17A) following treatment with crude extract of cannabis strains DQ, Paris, GB-11, GB-14 and GB-18. Cell viability was determined by XTT assay as a function of live cell number. NT is the vehicle treated control (1% v/v methanol). Error bars indicate ±SE (n=3). […] (FIG. 17B) following treatment with C. sativa DQ crude extract at different concentrations for IC50 value calculation from 5P logistic curve fit using GraphPad Prism version 6.1. Error bars indicate ±SE (n=3).
FIGS. 18A-C show cell viability of HTB75 cells following treatment with DQ extract fractions F1-F8, and crude extract. FIG. 18A—Cell viability was determined by XTT assay as a function of live cell number. NT is the vehicle treated control (1% v/v methanol). Error bars indicate ±SE (n=3). […] (FIGS. 18B-C) Cell viability of HTB75 cells following treatment with C. sativa DQ fractions F5 and F7 at different concentrations for IC50 values calculation from 5P logistic curve fit using GraphPad Prism version 6.1. Error bars indicate ±SE (n=3).
as §1

With `COc1ccc(/C=C/C(=O)Nc2ccccc2C(=O)O)cc1OC` [TRPV2 AN, Tranilast] the “effect of IA, AN or B alone on A172 cell viability” value (A172 GBM cells) was “reduced A172 cell viability to a minor, non-significant extent” and the “effect of IA, AN or B alone on HTB75 cell viability” value [1] was “did not affect HTB75 cell viability”.
